Source: article PMC6117270
These are yes or no findings as the source states them, for the method shown. Binding seen in cells or lysates may run through a third protein. Here binding means that the protein was enriched with, or labelled near, the bait; the list need not be complete.

Biological target: T1, non-POU domain containing octamer binding (NONO) protein (human (endogenous in NCI-N87, AGS and MKN-45)) (UniProt Q15233)
T1 sequence: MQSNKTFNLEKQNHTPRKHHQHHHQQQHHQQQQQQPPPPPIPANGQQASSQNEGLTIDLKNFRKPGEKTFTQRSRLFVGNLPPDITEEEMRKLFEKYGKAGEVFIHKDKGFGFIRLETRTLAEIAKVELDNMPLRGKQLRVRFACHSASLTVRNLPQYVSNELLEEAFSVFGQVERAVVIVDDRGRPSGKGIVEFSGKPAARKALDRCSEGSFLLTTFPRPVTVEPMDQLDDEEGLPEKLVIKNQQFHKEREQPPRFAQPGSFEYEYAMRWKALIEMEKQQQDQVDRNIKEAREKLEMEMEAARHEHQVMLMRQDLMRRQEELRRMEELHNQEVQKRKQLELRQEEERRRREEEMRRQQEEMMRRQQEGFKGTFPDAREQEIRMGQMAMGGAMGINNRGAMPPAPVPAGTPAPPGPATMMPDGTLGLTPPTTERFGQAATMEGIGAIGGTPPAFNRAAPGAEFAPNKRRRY
Assay: affinity purification with mass spectrometry; IP of NONO from NCI-N87 cells stably transfected with empty vector (mock) or pancEts-1; Coomassie blue staining and mass spectrometry

- binding: binds
B1: Ets related gene (ERG) (protein, UniProt P11308-3 1-486)
chain: MIQTVPDPAAHIKEALSVVSEDQSLFECAYGTPHLAKTEMTASSSSDYGQTSKMSPRVPQQDWLSQPPARVTIKMECNPSQVNGSRNSPDECSVAKGGKMVGSPDTVGMNYGSYMEEKHMPPPNMTTNERRVIVPADPTLWSTDHVRQWLEWAVKEYGLPDVNILLFQNIDGKELCKMTKDDFQRLTPSYNADILLSHLHYLRETPLPHLTSDDVDKALQNSPRLMHARNTGGAAFIFPNTSVYPEATQRITTRPDLPYEPPRRSAWTGHGHPTPQSKAAQPSPSTVPKTEDQRPQLDPYQILGPTSSRLANPGSGQIQLWQFLLELLSDSSNSSCITWEGTNGEFKMTDPDEVARRWGERKSKPNMNYDKLSRALRYYYDKNIMTKVHGKRYAYKFDFHGIAQALQPHPPESSLYKYPSDLPYMGSYHAHPQKMNFVAPHPPALPVTSSSFFAAPNPYWNSPTGGIYPNTRLPTSHMPSHLGTYY
